The test system of the data set is Sindbis virus TE/5'2J-GFP. As to the kind of experiment: percent infected (GFP+ in RFP+ ISG-expressing cells); higher = more infection (less antiviral activity). Particulars: experiment: primary screen (single well).

This is a noisy data set.

For “MSLLQSALDFLAGPGSLGGASGRDQSDFVGQTVELGELRLRVRRVLAEGGFAFVYEAQDVGSGREYALKRLLSNEEEKNRAIIQEVCFMKKLSGHPNIVQFCSAASIGKEESDTGQAEFLLLTELCKGQLVEFLKKMESRGPLSCDTVLKIFYQTCRAVQHMHRQKPPIIHRDLKVENLLLSNQGTIKLCDFGSATTISHYPDYSWSAQRRALVEEEITRNTTPMYRTPEIIDLYSNFPIGEKQDIWALGCILYLLCFRQHPFEDGAKLRIVNGKYSIPPHDTQYTVFHSLIRAMLQVNPEERLSIAEVVHQLQEIAAARNVNPKSPITELLEQNGGYGSATLSRGPPPPVGPAGSGYSGGLALAEYDQPYGGFLDILRGGTERLFTNLKDTSSKVIQSVANYAKGDLDISYITSRIAVMSFPAEGVESALKNNIEDVRLFLDSKHPGHYAVYNLSPRTYRPSRFHNRVSECGWAARRAPHLHTLYNICRNMHAWLRQDHKNVCVVHCMDGRAASAVAVCSFLCFCRLFSTAEAAVYMFSMKRCPPGIWPSHKRYIEYMCDMVAEEPITPHSKPILVRAVVMTPVPLFSKQRSGCRPFCEVYVGDERVASTSQEYDKMRDFKIEDGKAVIPLGVTVQGDVLIVIYHARSTLGGRLQAKMASMKMFQIQFHTGFVPRNATTVKFAKYDLDACDIQEKYPDLFQVNLEVEVEPRDRPSREAPPWENSSMRGLNPKILFSSREEQQDILSKFGKPELPRQPGSTAQYDAGAGSPEAEPTDSDSPPSSSADASRFLHTLDWQEEKEAETGAENASSKESESALMEDRDESEVSDEGGSPISSEGQEPRADPEPPGLAAGLVQQDLVFEVETPAVLPEPVPQEDGVDLLGLHSEVGAGPAVPPQACKAPSSNTDLLSCLLGPPEAASQGPPEDLLSEDPLLLASPAPPLSVQSTPRGGPPAAADPFGPLLPSSGNNSQPCSNPDLFGEFLNSDSVTVPPSFPSAHSAPPPSCSADFLHLGDLPGEPSKMTASSSNPDLLGGWAAWTETAASAVAPTPATEGPLFSPGGQPAPCGSQASWTKSQNPDPFADLGDLSSGLQGSPAGFPPGGFIPKTATTPKGSSSWQTSRPPAQGASWPPQAKPPPKACTQPRPNYASNFSVIGAREERGVRAPSFAQKPKVSENDFEDLLSNQGFSSRSDKKGPKTIAEMRKQDLAKDTDPLKLKLLDWIEGKERNIRALLSTLHTVLWDGESRWTPVGMADLVAPEQVKKHYRRAVLAVHPDKAAGQPYEQHAKMIFMELNDAWSEFENQGSRPLF”, the percent infected reads like this: (BHK/HA-Zeo (control)) 98.2%; (BHK/NZAP-Zeo (ZAP)) 96.5%.
Turning to “MASVIPASNRSMRSDRNTYVGKRFVHVKNPYLDLMDEDILYHLDLGTKTHNLPAMFGDVKFVCVGGSPNRMKAFALFMHKELGFEEAEEDIKDICAGTDRYCMYKTGPVLAISHGMGIPSISIMLHELIKLLHHARCCDVTIIRIGTSGGIGIAPGTVVITDIAVDSFFKPRFEQVILDNIVTRSTELDKELSEELFNCSKEIPNFPTLVGHTMCTYDFYEGQGRLDGALCSFSREKKLDYLKRAFKAGVRNIEMESTVFAAMCGLCGLKAAVVCVTLLDRLDCDQINLPHDVLVEYQQRPQLLISNFIRRRLGLCD [UPP2]”, the percent infected came to 92.5% (BHK/HA-Zeo (control)) and 70.6% (BHK/NZAP-Zeo (ZAP)).
For “MKLVSVALMYLGSLAFLGADTARLDVASEFRKKWNKWALSRGKRELRMSSSYPTGLADVKAGPAQTLIRPQDMKGASRSPEDSSPDAARIRVKRYRQSMNNFQGLRSFGCRFGTCTVQKLAHQIYQFTDKDKDNVAPRSKISPQGYGRRRRRSLPEAGPGRTLVSSKPQAHGAPAPPSGSAPHFL [ADM]”, the percent infected was found to be 97.3% (BHK/HA-Zeo (control)) and 92.8% (BHK/NZAP-Zeo (ZAP)).
The substance “MVSYWDTGVLLCALLSCLLLTGSSSGSKLKDPELSLKGTQHIMQAGQTLHLQCRGEAAHKWSLPEMVSKESERLSITKSACGRNGKQFCSTLTLNTAQANHTGFYSCKYLAVPTSKKKETESAIYIFISDTGRPFVEMYSEIPEIIHMTEGRELVIPCRVTSPNITVTLKKFPLDTLIPDGKRIIWDSRKGFIISNATYKEIGLLTCEATVNGHLYKTNYLTHRQTNTIIDVQISTPRPVKLLRGHTLVLNCTATTPLNTRVQMTWSYPDEKNKRASVRRRIDQSNSHANIFYSVLTIDKMQNKDKGLYTCRVRSGPSFKSVNTSVHIYDKAFITVKHRKQQVLETVAGKRSYRLSMKVKAFPSPEVVWLKDGLPATEKSARYLTRGYSLIIKDVTEEDAGNYTILLSIKQSNVFKNLTATLIVNVKPQIYEKAVSSFPDPALYPLGSRQILTCTAYGIPQPTIKWFWHPCNHNHSEARCDFCSNNEESFILDADSNMGNRIESITQRMAIIEGKNKMASTLVVADSRISGIYICIASNKVGTVGRNISFYITDVPNGFHVNLEKMPTEGEDLKLSCTVNKFLYRDVTWILLRTVNNRTMHYSISKQKMAITKEHSITLNLTIMNVSLQDSGTYACRARNVYTGEEILQKKEITIRDQEAPYLLRNLSDHTVAISSSTTLDCHANGVPEPQITWFKNNHKIQQEPGIILGPGSSTLFIERVTEEDEGVYHCKATNQKGSVESSAYLTVQGTSDKSNLELITLTCTCVAATLFWLLLTLFIRKMKRSSSEIKTDYLSIIMDPDEVPLDEQCERLPYDASKWEFARERLKLGKSLGRGAFGKVVQASAFGIKKSPTCRTVAVKMLKEGATASEYKALMTELKILTHIGHHLNVVNLLGACTKQGGPLMVIVEYCKYGNLSNYLKSKRDLFFLNKDAALHMEPKKEKMEPGLEQGKKPRLDSVTSSESFASSGFQEDKSLSDVEEEEDSDGFYKEPITMEDLISYSFQVARGMEFLSSRKCIHRDLAARNILLSENNVVKICDFGLARDIYKNPDYVRKGDTRLPLKWMAPESIFDKIYSTKSDVWSYGVLLWEIFSLGGSPYPGVQMDEDFCSRLREGMRMRAPEYSTPEIYQIMLDCWHRDPKERPRFAELVEKLGDLLQANVQQDGKDYIPINAILTGNSGFTYSTPAFSEDFFKESISAPKFNSGSSDDVRYVNAFKFMSLERIKTFEELLPNATSMFDDYQGDSSTLLASPMLKRFTWTDSKPKASLKIDLRVTSKSKESGLSDVSRPSFCHSSCGHVSEGKRRFTYDHAELERKIACCSPPPDYNSVVLYSTPPI [FLT1]” came in with a percent infected (BHK/HA-Zeo (control)) of 99.1% and a percent infected (BHK/NZAP-Zeo (ZAP)) of 98.5%.
For the substance “MPRIDADLKLDFKDVLLRPKRSSLKSRAEVDLERTFTFRNSKQTYSGIPIIVANMDTVGTFEMAAVMSQHSMFTAIHKHYSLDDWKLFATNHPECLQNVAVSSGSGQNDLEKMTSILEAVPQVKFICLDVANGYSEHFVEFVKLVRAKFPEHTIMAGNVVTGEMVEELILSGADIIKVGVGPGSVCTTRTKTGVGYPQLSAVIECADSAHGLKGHIISDGGCTCPGDVAKAFGAGADFVMLGGMFSGHTECAGEVFERNGRKLKLFYGMSSDTAMNKHAGGVAEYRASEGKTVEVPYKGDVENTILDILGGLRSTCTYVGAAKLKELSRRATFIRVTQQHNTVFS [GMPR]”, the percent infected reads like this: (BHK/HA-Zeo (control)) 97.1%; (BHK/NZAP-Zeo (ZAP)) 89.5%.
On to UBE2L6, for which the percent infected (BHK/HA-Zeo (control)) was found to be 93.9% and the percent infected (BHK/NZAP-Zeo (ZAP)) stood at 80.3%.
The matching figures for “MPNSEPASLLELFNSIATQGELVRSLKAGNASKDEIDSAVKMLVSLKMSYKAAAGEDYKADCPPGNPAPTSNHGPDATEAEEDFVDPWTVQTSSAKGIDYDKLIVRFGSSKIDKELINRIERATGQRPHHFLRRGIFFSHRDMNQVLDAYENKKPFYLYTGRGPSSEAMHVGHLIPFIFTKWLQDVFNVPLVIQMTDDEKYLWKDLTLDQAYSYAVENAKDIIACGFDINKTFIFSDLDYMGMSSGFYKNVVKIQKHVTFNQVKGIFGFTDSDCIGKISFPAIQAAPSFSNSFPQIFRDRTDIQCLIPCAIDQDPYFRMTRDVAPRIGYPKPALLHSTFFPALQGAQTKMSASDPNSSIFLTDTAKQIKTKVNKHAFSGGRDTIEEHRQFGGNCDVDVSFMYLTFFLEDDDKLEQIRKDYTSGAMLTGELKKALIEVLQPLIAEHQARRKEVTDEIVKEFMTPRKLSFDFQ [WARS]”: 98.1% and 93.2%.
Consider “MRSCFCVRRSRDPPPPQPPPPPPQRGTDQSTMPEVKDLSEALPETSMDPITGVGVVASRNRAPTGYDVVAQTADGVDADLWKDGLFKSKVTRYLCFTRSFSKENSHLGNVLVDMKLIDIKDTLPVGFIPIQETVDTQEVAFRKKRLCIKFIPRDSTEAAICDIRIMGRTKQAPPQYTFIGELNSMGIWYRMGRVPRNHDSSQPTTPSQSSAASTPAPNLPRHISLTLPATFRGRNSTRTDYEYQHSNLYAISAMDGVPFMISEKFSCVPESMQPFDLLGITIKSLAEIEKEYEYSFRTEQSAAARLPPSPTRCQQIPQS [FAM125B]”, for which the percent infected is, setting by setting: (BHK/HA-Zeo (control)) 97.6%; (BHK/NZAP-Zeo (ZAP)) 92.1%.

The values above are taken from the supplement of paper PMC3353916.
